# Reference: patent US6699842B1, “Dominant negative deletion mutants of C-jun and their use in the prevention and treatment of cancer” (The United States of America as represented by the …, priority 1994, dated 2004)
# For at least one compound, name, drawing or mass did not settle the structure.
# Tests used:
# [1] = system: JB6 P+ Cl 41 cells; experiment: soft agar transformation assay, JB6 P+ Cl 41 cells; assay type: cell-based, mouse; conditions: 3 ng/ml TPA, 14 days in 0.33% agar, FA 10^−9-10^−7 M, RA 10^−9-10^−6 M
# Experimental: (§1) In order to test whether the same concentration ranges of inhibitors shown in FIGS. 2A and 2B to repress TPA-induced AP-1 activity could also block TPA-induced transformation, a soft agar transformation assay was carried out on JB6 P^+ Cl 41 (cross-hatched bar) or JB6 P^+ Cl 41.5a (closed bar) cells exposed in 0.33% agar for 14 days to 0.01% DMSO alone, 3 ng/ml TPA alone (TPA), 10^−7 or 10^−8 M FA alone (FA7 and FA8, respectively), 10^−6 M RA alone (RA6) 3 ng/ml TPA in the presence of 10^−7-10^−9 M FA (TFA7, TFA8, TFA9) or to 3 ng/ml TPA in 10^−6-10^−9 M retinoic acid (TRA6, TRA7, TRA8, TRA9). Treated cells were scored for colonies after 14 days in agar and transformation response was expressed as the number of soft agar colonies/10^4 suspended cells. […] In agreement with an earlier observation by De Benedetti et al. ((1991) Cancer Res., 51:1158-1164), the sensitivity of Cl 41.5a cells to antipromotion by RA appeared to be greater than that observed with the Cl 41 cells. More importantly, the concentration-dependent range of FA effective in blocking TPA-induced transformation appeared identical to that range which was active in blocking TPA-induced CAT activity by FA (10^−9 M to 10^−7 M FA, see TFA7, TFA8 and TFA9 in FIG. 2A). […]
# [2] = system: JB6 P+ Cl 41.5a cells; experiment: soft agar transformation assay, JB6 P+ Cl 41.5a cells; assay type: cell-based, mouse; conditions: 3 ng/ml TPA
# Experimental: as §1
structure (smiles),measurement,setting,value
"CC1=C(/C=C/C(C)=C/C=C/C(C)=C/C(=O)O)C(C)(C)CCC1 [RA, retinoic acid]",TPA-induced transformation (soft agar colonies/10^4 suspended cells),[1],blocked TPA-induced transformation in a concentration-dependent manner
same,TPA-induced transformation (soft agar colonies/10^4 suspended cells),"[2]; Cl 41.5a cells, 14 days in 0.33% agar, FA 10^−9-10^−7 M, RA 10^−9-10^−6 M",blocked TPA-induced transformation in a concentration-dependent manner
same,"sensitivity to antipromotion, Cl 41.5a cells compared with Cl 41 cells","[2]; soft agar, 14 days",greater
